Laboratory results taken from the supplement of paper PMC10849652.
The other results are listed elsewhere or left out.

By UniProt entry, the sequences of proteins in these tests, tags left out. Where a name states a change or a piece, a line headed by the entry shows the natural chain unless it says otherwise.
UniProt P62995: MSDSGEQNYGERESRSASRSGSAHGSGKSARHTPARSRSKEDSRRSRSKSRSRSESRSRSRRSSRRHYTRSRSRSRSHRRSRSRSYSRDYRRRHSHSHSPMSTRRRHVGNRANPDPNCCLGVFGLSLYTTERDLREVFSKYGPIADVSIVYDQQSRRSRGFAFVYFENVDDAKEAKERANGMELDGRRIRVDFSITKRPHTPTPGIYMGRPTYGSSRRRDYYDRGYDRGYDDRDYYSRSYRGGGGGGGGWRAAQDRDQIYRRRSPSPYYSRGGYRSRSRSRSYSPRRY
UniProt P67936, whole entry, looked up: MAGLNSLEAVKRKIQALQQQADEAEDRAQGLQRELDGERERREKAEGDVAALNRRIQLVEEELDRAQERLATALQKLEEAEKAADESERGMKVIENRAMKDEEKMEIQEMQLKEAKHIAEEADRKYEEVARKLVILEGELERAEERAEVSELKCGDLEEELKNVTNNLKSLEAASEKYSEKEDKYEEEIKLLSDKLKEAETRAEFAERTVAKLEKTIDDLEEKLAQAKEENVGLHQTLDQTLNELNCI
UniProt Q9ULW0, whole entry, looked up: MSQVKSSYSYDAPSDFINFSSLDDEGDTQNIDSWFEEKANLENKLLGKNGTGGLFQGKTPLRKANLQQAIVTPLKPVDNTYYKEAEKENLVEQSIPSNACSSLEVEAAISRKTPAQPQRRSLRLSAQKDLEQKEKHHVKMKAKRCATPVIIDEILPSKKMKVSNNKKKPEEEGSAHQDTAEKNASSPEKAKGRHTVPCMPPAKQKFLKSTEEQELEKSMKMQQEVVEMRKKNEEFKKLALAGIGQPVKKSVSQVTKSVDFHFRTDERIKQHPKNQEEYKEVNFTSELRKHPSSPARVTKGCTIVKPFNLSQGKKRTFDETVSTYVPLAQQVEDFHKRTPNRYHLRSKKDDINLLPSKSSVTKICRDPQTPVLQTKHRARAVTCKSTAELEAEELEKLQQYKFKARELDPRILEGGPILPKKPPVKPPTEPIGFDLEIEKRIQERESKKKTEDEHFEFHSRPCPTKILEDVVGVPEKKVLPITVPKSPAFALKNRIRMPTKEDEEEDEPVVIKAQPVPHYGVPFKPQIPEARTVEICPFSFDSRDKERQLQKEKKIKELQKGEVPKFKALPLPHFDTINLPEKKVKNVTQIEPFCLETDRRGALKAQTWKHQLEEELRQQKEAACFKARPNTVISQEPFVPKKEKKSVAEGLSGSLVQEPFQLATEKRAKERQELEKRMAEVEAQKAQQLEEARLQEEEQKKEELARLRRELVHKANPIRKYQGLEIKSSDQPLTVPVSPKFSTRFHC
UniProt Q9NUP7: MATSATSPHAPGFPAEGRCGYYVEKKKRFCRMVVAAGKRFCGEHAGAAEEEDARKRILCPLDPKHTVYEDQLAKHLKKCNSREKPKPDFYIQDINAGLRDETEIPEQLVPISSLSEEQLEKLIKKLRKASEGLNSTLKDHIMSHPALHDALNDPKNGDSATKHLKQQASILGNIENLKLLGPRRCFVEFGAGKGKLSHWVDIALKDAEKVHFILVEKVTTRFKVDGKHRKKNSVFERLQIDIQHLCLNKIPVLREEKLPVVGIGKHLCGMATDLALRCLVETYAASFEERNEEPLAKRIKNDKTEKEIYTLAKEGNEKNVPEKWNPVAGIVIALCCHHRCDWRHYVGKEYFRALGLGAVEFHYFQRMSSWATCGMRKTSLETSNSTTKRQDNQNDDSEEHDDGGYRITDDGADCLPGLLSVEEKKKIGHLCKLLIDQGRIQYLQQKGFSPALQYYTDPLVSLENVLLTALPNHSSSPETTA
UniProt Q7Z2T5: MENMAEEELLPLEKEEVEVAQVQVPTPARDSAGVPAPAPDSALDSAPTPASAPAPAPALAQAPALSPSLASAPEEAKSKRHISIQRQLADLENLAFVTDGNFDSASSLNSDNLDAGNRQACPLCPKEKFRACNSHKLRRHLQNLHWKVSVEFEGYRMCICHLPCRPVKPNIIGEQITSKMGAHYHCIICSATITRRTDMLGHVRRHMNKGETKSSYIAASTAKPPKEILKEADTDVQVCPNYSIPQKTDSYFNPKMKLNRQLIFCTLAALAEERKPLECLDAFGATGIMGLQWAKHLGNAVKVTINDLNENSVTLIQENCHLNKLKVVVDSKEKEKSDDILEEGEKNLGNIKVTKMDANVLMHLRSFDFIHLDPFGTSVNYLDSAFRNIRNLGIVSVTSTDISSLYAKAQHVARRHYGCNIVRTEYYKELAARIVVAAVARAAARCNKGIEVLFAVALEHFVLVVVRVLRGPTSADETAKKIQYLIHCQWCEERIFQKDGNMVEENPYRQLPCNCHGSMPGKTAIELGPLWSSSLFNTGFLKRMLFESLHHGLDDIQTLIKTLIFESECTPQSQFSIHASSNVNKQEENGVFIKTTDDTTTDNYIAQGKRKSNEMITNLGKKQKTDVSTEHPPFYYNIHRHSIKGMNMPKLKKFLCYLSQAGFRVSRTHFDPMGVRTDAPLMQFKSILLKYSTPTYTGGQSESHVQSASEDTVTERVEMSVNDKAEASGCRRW
UniProt P51580: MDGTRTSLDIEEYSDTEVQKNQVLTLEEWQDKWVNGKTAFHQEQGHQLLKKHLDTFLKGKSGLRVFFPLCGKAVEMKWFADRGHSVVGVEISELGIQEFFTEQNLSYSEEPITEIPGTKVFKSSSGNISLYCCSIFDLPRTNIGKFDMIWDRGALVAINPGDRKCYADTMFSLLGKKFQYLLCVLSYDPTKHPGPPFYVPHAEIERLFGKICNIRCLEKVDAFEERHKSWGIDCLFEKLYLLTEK
UniProt Q9C0C2: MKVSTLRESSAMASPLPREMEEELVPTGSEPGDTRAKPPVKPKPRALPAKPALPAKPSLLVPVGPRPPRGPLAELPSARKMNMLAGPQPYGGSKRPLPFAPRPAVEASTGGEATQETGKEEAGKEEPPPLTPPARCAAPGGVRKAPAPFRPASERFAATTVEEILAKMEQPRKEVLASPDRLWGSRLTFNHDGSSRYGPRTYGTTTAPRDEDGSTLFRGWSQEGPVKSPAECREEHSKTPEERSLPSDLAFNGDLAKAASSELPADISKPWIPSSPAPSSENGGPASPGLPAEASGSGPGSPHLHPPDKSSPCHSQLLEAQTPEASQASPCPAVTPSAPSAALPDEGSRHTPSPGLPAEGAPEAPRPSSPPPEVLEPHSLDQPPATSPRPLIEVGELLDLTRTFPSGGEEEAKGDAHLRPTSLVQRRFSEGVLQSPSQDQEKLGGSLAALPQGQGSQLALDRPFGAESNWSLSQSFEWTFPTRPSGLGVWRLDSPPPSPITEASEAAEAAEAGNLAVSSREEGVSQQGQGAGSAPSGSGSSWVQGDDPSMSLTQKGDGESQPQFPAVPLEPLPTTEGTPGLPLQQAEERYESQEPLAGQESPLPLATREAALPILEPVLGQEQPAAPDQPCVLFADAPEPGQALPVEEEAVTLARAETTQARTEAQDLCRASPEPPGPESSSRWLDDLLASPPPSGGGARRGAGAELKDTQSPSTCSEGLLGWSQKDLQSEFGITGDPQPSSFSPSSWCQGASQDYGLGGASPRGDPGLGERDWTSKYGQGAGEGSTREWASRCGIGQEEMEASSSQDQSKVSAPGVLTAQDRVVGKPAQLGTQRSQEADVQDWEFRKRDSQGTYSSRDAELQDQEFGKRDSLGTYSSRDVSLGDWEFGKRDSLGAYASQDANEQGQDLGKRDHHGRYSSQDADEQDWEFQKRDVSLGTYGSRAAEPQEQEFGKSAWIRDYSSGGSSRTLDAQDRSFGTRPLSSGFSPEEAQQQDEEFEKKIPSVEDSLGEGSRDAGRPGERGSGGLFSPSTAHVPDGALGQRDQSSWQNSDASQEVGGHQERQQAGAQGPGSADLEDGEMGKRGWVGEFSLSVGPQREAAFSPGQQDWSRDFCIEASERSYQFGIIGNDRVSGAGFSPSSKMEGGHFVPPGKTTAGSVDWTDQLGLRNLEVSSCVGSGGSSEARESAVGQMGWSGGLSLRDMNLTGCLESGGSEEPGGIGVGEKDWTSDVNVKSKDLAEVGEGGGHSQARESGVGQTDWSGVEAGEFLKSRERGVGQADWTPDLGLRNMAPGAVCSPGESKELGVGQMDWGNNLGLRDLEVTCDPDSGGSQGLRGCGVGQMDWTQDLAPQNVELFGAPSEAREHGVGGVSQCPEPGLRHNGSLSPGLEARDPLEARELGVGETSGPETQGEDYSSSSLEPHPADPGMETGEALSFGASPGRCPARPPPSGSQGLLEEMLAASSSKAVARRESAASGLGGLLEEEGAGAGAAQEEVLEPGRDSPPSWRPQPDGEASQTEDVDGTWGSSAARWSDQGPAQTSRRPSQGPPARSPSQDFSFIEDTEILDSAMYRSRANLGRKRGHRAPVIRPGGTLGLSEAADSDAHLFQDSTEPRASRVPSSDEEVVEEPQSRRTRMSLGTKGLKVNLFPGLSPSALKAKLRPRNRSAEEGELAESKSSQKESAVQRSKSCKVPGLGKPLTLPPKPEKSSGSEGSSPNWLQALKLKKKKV
UniProt Q7Z392: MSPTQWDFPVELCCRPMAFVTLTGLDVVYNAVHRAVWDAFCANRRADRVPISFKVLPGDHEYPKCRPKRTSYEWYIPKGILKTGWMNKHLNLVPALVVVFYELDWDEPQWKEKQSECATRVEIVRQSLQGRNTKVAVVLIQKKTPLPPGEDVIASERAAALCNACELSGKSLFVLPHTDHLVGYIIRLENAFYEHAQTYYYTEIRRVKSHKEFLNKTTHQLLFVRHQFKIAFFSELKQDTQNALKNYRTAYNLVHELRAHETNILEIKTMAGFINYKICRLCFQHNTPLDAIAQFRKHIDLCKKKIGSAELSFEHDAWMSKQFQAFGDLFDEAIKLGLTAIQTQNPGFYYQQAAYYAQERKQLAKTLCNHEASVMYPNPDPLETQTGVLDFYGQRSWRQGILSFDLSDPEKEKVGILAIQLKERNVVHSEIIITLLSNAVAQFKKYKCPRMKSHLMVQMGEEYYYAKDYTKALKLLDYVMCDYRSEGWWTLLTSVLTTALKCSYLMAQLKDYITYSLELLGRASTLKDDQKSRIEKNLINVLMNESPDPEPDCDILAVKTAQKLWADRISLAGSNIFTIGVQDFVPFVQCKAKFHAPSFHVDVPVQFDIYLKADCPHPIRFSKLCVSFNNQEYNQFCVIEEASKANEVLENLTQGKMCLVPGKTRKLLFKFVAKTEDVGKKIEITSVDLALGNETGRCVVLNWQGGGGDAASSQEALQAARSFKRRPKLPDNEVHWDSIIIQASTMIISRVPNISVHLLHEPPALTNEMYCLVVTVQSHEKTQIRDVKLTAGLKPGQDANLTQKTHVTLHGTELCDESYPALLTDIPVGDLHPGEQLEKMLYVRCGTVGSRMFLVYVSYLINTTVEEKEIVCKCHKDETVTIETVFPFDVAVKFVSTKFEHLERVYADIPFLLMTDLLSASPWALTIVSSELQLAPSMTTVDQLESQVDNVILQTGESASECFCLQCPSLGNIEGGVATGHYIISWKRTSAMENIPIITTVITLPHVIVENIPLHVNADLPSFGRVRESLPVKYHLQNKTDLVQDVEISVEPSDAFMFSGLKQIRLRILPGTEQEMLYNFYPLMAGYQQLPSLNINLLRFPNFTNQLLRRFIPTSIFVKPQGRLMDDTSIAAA
UniProt Q13049: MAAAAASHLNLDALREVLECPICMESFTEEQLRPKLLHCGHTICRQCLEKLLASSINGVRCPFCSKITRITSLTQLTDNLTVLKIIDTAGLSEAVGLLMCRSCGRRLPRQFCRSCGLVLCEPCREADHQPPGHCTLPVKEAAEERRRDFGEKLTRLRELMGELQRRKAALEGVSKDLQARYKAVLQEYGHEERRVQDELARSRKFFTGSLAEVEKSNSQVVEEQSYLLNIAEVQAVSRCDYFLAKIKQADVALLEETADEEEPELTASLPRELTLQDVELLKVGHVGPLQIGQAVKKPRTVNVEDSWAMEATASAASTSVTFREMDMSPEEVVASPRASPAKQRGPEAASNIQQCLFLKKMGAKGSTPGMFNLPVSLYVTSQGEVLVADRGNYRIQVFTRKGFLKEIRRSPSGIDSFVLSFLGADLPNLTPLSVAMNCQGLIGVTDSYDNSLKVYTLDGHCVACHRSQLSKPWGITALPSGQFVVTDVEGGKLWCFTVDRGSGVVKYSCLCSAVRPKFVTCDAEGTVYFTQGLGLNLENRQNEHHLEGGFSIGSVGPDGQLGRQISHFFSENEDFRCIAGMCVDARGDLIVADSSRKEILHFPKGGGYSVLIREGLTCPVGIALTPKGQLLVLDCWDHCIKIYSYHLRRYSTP
UniProt Q9NS69: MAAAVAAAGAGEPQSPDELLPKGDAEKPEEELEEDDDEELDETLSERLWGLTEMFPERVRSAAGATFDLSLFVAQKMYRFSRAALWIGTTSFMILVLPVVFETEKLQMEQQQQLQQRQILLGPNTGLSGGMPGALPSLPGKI
UniProt Q8N4H5: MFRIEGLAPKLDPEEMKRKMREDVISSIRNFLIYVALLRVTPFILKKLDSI
UniProt Q9UL33, whole entry, looked up: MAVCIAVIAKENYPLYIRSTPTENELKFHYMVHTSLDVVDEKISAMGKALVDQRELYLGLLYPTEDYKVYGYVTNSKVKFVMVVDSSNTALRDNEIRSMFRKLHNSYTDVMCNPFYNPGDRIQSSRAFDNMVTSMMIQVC

compound: Nc1ccccc1NC(=O)c1ccc(CNC(=O)OCc2cccnc2)cc1 [entinostat]; test: log2 fold change, soluble protein after heating vs DMSO (PISA); higher = thermal stabilisation; K562 cells, 10 uM, 30 min; active = over 0.2 and 3.5 SD of the protein, either way, in both replicates (recomputed)
Method in brief: (§1)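 For each measurement, 10 μM compound was applied for 30 min to K562 cells at 2×10^6 cells/mL. Aliquots were heated for 3 min across 48°C-58°C, pooled, and extracted in PBS with 0.5% NP-40 at 4°C; the supernatant after 21,000xg for 90 min was soluble protein. This was quantified by TMTpro 16plex LC-MS/MS with channel sums equalised, and thermal stability was reported relative to control samples from duplicates, on a log2 fold-change scale.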

Target	log2 fold change
TOX4 (UniProt O94842)	inactive: -0.033
TPD52L1 (UniProt Q16890)	inactive: -0.005
TNPO3 (UniProt Q9Y5L0)	inactive: 0.049
TPM1 (UniProt H7BYY1)	inactive: -0.015
TOLLIP (UniProt Q9H0E2)	inactive: 0.054
TRA2B (UniProt P62995)	inactive: -0.124
TP53BP1 isoform 2 (UniProt Q12888)	inactive: 0.018
TRIAP1 (UniProt O43715)	inactive: 0.041
TRIP10 (UniProt Q15642)	inactive: 0.019
TPM4 isoform 2 (UniProt P67936)	inactive: 0.122
TSEN2 (UniProt Q8NCE0)	inactive: 0.052
TNFRSF8 (UniProt P28908)	inactive: -0.066
TPM2 (UniProt P07951)	inactive: 0.077
TPX2 (UniProt Q9ULW0)	inactive: -0.058
TPST2 (UniProt O60704)	inactive: -0.023
TOR1A (UniProt O14656)	inactive: -0.005

Target	log2 fold change
TRMT13 (UniProt Q9NUP7)	inactive: 0.008
TRMT1L (UniProt Q7Z2T5)	inactive: -0.084
TPMT (UniProt P51580)	inactive: 0.012
TPI1 (UniProt P60174)	inactive: -0.022
TOR4A (UniProt Q9NXH8)	inactive: -0.01
TNKS1BP1 (UniProt Q9C0C2)	inactive: -0.061
TRAPPC11 (UniProt Q7Z392)	inactive: 0.011
TRIM32 (UniProt Q13049)	inactive: -0.018
TOMM22 (UniProt Q9NS69)	inactive: 0.009
TOMM5 isoform 2 (UniProt Q8N4H5)	inactive: 0.067
TOM1 isoform 2 (UniProt O60784)	inactive: -0.045
TRAPPC2L (UniProt Q9UL33)	inactive: 0.008
TRIP10 isoform 2 (UniProt Q15642)	inactive: -0.2
TPD52L2 isoform 7 (UniProt O43399)	inactive: 0.015
TPM4, A0A2R8Y5V9	inactive: 0.014
TOM1L1 (UniProt O75674)	inactive: -0.034

compound: O=C(CCCCCCC(=O)Nc1ccccc1)NO [vorinostat]; test: as above
Method in brief: as §1

Target	log2 fold change
TOX4 (UniProt O94842)	inactive: 0
TPD52L1 (UniProt Q16890)	inactive: -0.027
TNPO3 (UniProt Q9Y5L0)	inactive: 0.076
TPM1 (UniProt H7BYY1)	inactive: -0.112
TOLLIP (UniProt Q9H0E2)	inactive: 0.013
TRA2B (UniProt P62995)	inactive: -0.047
TP53BP1 isoform 2 (UniProt Q12888)	inactive: 0.031
TRIAP1 (UniProt O43715)	inactive: -0.177
TRIP10 (UniProt Q15642)	inactive: -0.063
TPM4 isoform 2 (UniProt P67936)	inactive: -0.063
TSEN2 (UniProt Q8NCE0)	inactive: -0.003
TNFRSF8 (UniProt P28908)	inactive: -0.078
TPM2 (UniProt P07951)	inactive: -0.077
TPX2 (UniProt Q9ULW0)	inactive: -0.111
TPST2 (UniProt O60704)	inactive: -0.048
TOR1A (UniProt O14656)	inactive: -0.019

Target	log2 fold change
TRMT13 (UniProt Q9NUP7)	inactive: -0.033
TRMT1L (UniProt Q7Z2T5)	inactive: -0.056
TPMT (UniProt P51580)	inactive: -0.06
TPI1 (UniProt P60174)	inactive: -0.041
TOR4A (UniProt Q9NXH8)	inactive: -0.068
TNKS1BP1 (UniProt Q9C0C2)	inactive: -0.043
TRAPPC11 (UniProt Q7Z392)	inactive: 0.012
TRIM32 (UniProt Q13049)	inactive: -0.043
TOMM22 (UniProt Q9NS69)	inactive: -0.184
TOMM5 isoform 2 (UniProt Q8N4H5)	inactive: -0.117
TOM1 isoform 2 (UniProt O60784)	inactive: -0.119
TRAPPC2L (UniProt Q9UL33)	inactive: 0.068
TRIP10 isoform 2 (UniProt Q15642)	inactive: 0.026
TPD52L2 isoform 7 (UniProt O43399)	inactive: -0.019
TPM4, A0A2R8Y5V9	inactive: -0.014
TOM1L1 (UniProt O75674)	inactive: 0.092

compound: O=C(CCCCCCNC(=O)c1cnc(N(c2ccccc2)c2ccccc2Cl)nc1)NO [citarinostat]; test: as above
Method in brief: as §1

Target	log2 fold change
TOX4 (UniProt O94842)	inactive: -0.139
TPD52L1 (UniProt Q16890)	inactive: 0.073
TNPO3 (UniProt Q9Y5L0)	inactive: 0.058
TPM1 (UniProt H7BYY1)	inactive: -0.047
TOLLIP (UniProt Q9H0E2)	inactive: 0.044
TRA2B (UniProt P62995)	inactive: -0.029
TP53BP1 isoform 2 (UniProt Q12888)	inactive: 0.074
TRIAP1 (UniProt O43715)	inactive: -0.024
TRIP10 (UniProt Q15642)	inactive: 0
TPM4 isoform 2 (UniProt P67936)	inactive: -0.037
TSEN2 (UniProt Q8NCE0)	inactive: 0.005
TNFRSF8 (UniProt P28908)	inactive: -0.003
TPM2 (UniProt P07951)	inactive: 0.103
TPX2 (UniProt Q9ULW0)	inactive: -0.131
TPST2 (UniProt O60704)	inactive: 0.084
TOR1A (UniProt O14656)	inactive: 0.042

Target	log2 fold change
TRMT13 (UniProt Q9NUP7)	inactive: 0.038
TRMT1L (UniProt Q7Z2T5)	inactive: -0.056
TPMT (UniProt P51580)	inactive: 0.026
TPI1 (UniProt P60174)	inactive: 0.001
TOR4A (UniProt Q9NXH8)	inactive: 0.039
TNKS1BP1 (UniProt Q9C0C2)	inactive: -0.031
TRAPPC11 (UniProt Q7Z392)	inactive: -0.006
TRIM32 (UniProt Q13049)	inactive: -0.058
TOMM22 (UniProt Q9NS69)	inactive: 0.028
TOMM5 isoform 2 (UniProt Q8N4H5)	inactive: 0.039
TOM1 isoform 2 (UniProt O60784)	inactive: 0.056
TRAPPC2L (UniProt Q9UL33)	inactive: 0.031
TRIP10 isoform 2 (UniProt Q15642)	inactive: -0.11
TPD52L2 isoform 7 (UniProt O43399)	inactive: 0.034
TPM4, A0A2R8Y5V9	inactive: 0.039
TOM1L1 (UniProt O75674)	inactive: -0.074
